Experimental data: PubChem BioAssay AID493246 (Drosophila RNAi Screening Center, 2011)
The screen tested about 21,000 reagents; shown is an unselected part of those that have a named target and a result. Of all reagents, 429 (2%) are marked active. 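Values are raw and not normalised between plates; calls rest on per-plate z-scores that were not deposited.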 Entries without a mark were called inactive. Names joined by + are all predicted targets of the reagent. Not given: the amount of reagent, the time to read-out.

Test: 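Identify essential fly genes by loss of cell viability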 (primary screen)
System: Drosophila Kc and S2R+ cells
Reagent: long dsRNA against Drosophila genes
Detection: 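Raw, unnormalised count of remaining cells in each well; per-plate z-scores of cell number underlie the calls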
Scale: Kc cell number and S2R+ cell number: higher = more cells remaining
Rule for the call: 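Counted as a hit if cell number falls by a z-score of at least 3 within its plate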

| gene | amplicon | Kc cell number, rep 1 | Kc cell number, rep 2 | S2R+ cell number, rep 1 | S2R+ cell number, rep 2 |
| --- | --- | --- | --- | --- | --- |
| CG14075 | DRSC10080 | 1.64e6 | 1.72e6 | 1.29e6 | 1.47e6 |
| Ppr-Y | DRSC20892 | 1.20e6 | 1.53e6 | 1.18e6 | 1.18e6 |
| CG13045 | DRSC09926 | 1.59e6 | 1.73e6 | 1.33e6 | 1.38e6 |
| aop (anterior open) | DRSC00801 | 1.18e6 (active) | 1.12e6 | 4.90e5 | 6.19e5 |
| CG12945 | DRSC14573 | 1.46e6 | 1.54e6 | 1.35e6 | 1.46e6 |
| tsg (twisted gastrulation) | DRSC20380 | 1.55e6 | 1.48e6 | 1.07e6 | 1.12e6 |
| CG4607 | DRSC18375 | 1.58e6 | 1.58e6 | 1.07e6 | 1.24e6 |
| CG18262 | DRSC18149 | 1.72e6 | 1.72e6 | 1.09e6 | 1.20e6 |
| CG7453 | DRSC20046 | 1.56e6 | 1.60e6 | 1.11e6 | 1.21e6 |
| dila (dilatory) | DRSC06607 | 1.77e6 | 1.82e6 | 1.31e6 | 1.49e6 |
| Oamb (Octopamine receptor in mushroom bodies) | DRSC13433 | 1.68e6 | 1.70e6 | 1.07e6 | 1.16e6 |
| Oamb (Octopamine receptor in mushroom bodies) | DRSC15120 | 1.34e6 | 1.40e6 | 8.90e5 | 1.04e6 |
| Oamb (Octopamine receptor in mushroom bodies) | DRSC16763 | 1.38e6 | 1.50e6 | 1.01e6 | 1.06e6 |
| mRpL14 (mitochondrial ribosomal protein L14) | DRSC18597 | 1.38e6 | 1.39e6 | 8.97e5 | 1.02e6 |
| GlcAT-I (Glucuronyltransferase I) | DRSC17307 | 1.16e6 | 1.38e6 | 9.55e5 | 9.30e5 |
| CG14757 | DRSC06492 | 1.54e6 | 1.59e6 | 1.19e6 | 1.31e6 |
| CG32053 | DRSC10683 | 1.25e6 | 1.34e6 | 1.20e6 | 9.87e5 |
| Cyp6d5 (Cytochrome P450 6d5) | DRSC16634 | 1.46e6 | 1.52e6 | 1.18e6 | 1.21e6 |
| Ubc7 (Ubiquitin conjugating enzyme 7) | DRSC20299 | 1.47e6 | 1.47e6 | 1.04e6 | 1.13e6 |
| E23 (Early gene at 23) | DRSC00425 | 1.07e6 (active) | 7.85e5 | 5.69e5 | 6.93e5 |
| E23 (Early gene at 23) | DRSC00593 | 1.46e6 | 1.41e6 | 1.14e6 | 1.30e6 |
| CG11334 | DRSC14066 | 1.24e6 | 1.59e6 | 1.12e6 | 1.17e6 |
| CG11334 | DRSC14302 | 1.57e6 | 1.57e6 | 1.05e6 | 1.16e6 |
| Mlp84B (Muscle LIM protein at 84B) | DRSC12596 | 1.47e6 | 1.52e6 | 1.30e6 | 1.43e6 |
| UK114 | DRSC01973 | 1.51e6 | 1.60e6 | 1.21e6 | 1.34e6 |
| CG2608 | DRSC02709 | 1.28e6 | 1.32e6 | 1.15e6 | 1.25e6 |
| Lst (Limostatin) | DRSC07146 | 1.88e6 | 1.95e6 | 1.25e6 | 1.34e6 |
| CG9416 | DRSC07339 | 1.66e6 | 1.75e6 | 1.35e6 | 1.55e6 |
| Sirt4 (Sirtuin 4) | DRSC18290 | 1.47e6 | 1.43e6 | 1.03e6 | 1.15e6 |
| CG31206 | DRSC13388 | 1.49e6 | 1.51e6 | 1.05e6 | 1.16e6 |
| CG7352 | DRSC16233 | 1.68e6 | 1.88e6 | 1.24e6 | 1.35e6 |
| Appl (beta amyloid protein precursor-like) | DRSC17728 | 5.56e5 | – | 7.90e5 | – |
| CG14324 | DRSC14803 | 1.43e6 | 1.45e6 | 1.00e6 | 9.98e5 |
| Lipt1 (Lipoyltransferase 1) | DRSC05600 | 5.82e5 | – | 7.63e5 | – |
| Lipt1 (Lipoyltransferase 1) | DRSC07183 | 1.43e6 | 1.35e6 | 1.14e6 | 1.22e6 |
| Karybeta3 (Karyopherin beta 3) | DRSC12355 | 1.46e6 | 1.37e6 | 1.24e6 | 1.37e6 |
| CG14126 (retired record) | DRSC10130 | 1.32e6 | 1.37e6 | 1.21e6 | 1.31e6 |
| Sb (Stubble) | DRSC16851 | 1.33e6 | 1.52e6 | 1.20e6 | 1.36e6 |
| CG15322 | DRSC20680 | 1.38e6 | 1.38e6 | 7.52e5 | 8.06e5 |
| Sik2 (Salt-inducible kinase 2) | DRSC18522 | 1.53e6 | 1.52e6 | 1.10e6 | 1.19e6 |
| Taf13 (TBP-associated factor 13) | DRSC02106 | 1.47e6 | 1.54e6 | 1.22e6 | 2.75e5 |
| CG8907 | DRSC16453 | 1.47e6 | 1.60e6 | 1.09e6 | 1.14e6 |
| t-Grip91 (testis-specific gamma-tubulin ring protein 91) | DRSC01506 | 1.61e6 | 1.61e6 | 9.97e5 | 1.20e6 |
| CG13833 | DRSC14683 | 1.59e6 | 1.67e6 | 9.84e5 | 1.06e6 |
| CG32551 | DRSC19259 | 1.66e6 | 1.95e6 | 1.14e6 | 1.29e6 |
| Myb (Myb oncogene-like) | DRSC20260 | 5.55e5 | – | 9.29e5 | – |
| Trmt6 (tRNA methyltransferase 6 non-catalytic subunit) | DRSC03272 | 1.55e6 | 1.47e6 | 1.10e6 | 1.27e6 |
| CG4911 | DRSC10456 | 1.23e6 | 1.41e6 | 1.25e6 | 1.11e6 |
| CG12268 | DRSC14491 | 1.70e6 | 1.58e6 | 9.28e5 | 1.03e6 |
| CG11566 (retired record) + stg1 | DRSC20473 | 1.23e6 | 1.40e6 | 7.43e5 | 8.13e5 |
| CG11566 (retired record) + stg1 | DRSC20481 | 1.72e6 | 1.77e6 | 1.17e6 | 1.27e6 |
| CG11566 (retired record) + stg1 | DRSC20482 | 1.52e6 | 1.49e6 | 1.13e6 | 1.25e6 |
| CG11566 (retired record) + stg1 | DRSC20483 | 1.58e6 | 1.59e6 | 1.13e6 | 1.25e6 |
| Or98a (Odorant receptor 98a) | DRSC16774 | 1.44e6 | 1.51e6 | 9.77e5 | 1.07e6 |
| Tim17b2 (Translocase inner membrane 17) | DRSC03457 | 1.46e6 | 1.53e6 | 1.20e6 | 1.37e6 |
| HGTX | DRSC09319 | 1.49e6 | 1.65e6 | 1.15e6 | 1.42e6 |
| HGTX | DRSC11181 | 1.32e6 | 1.42e6 | 1.28e6 | 1.32e6 |
| CG14052 | DRSC17907 | 1.41e6 | 1.51e6 | 1.15e6 | 1.29e6 |
| CG14052 | DRSC18192 | 1.63e6 | 1.82e6 | 1.12e6 | 1.19e6 |
| Tgt (tRNA-guanine transglycosylase) | DRSC00672 | 1.35e6 | 1.40e6 | 1.17e6 | 1.21e6 |
| CG11125 | DRSC06042 | 1.49e6 | 1.53e6 | 1.23e6 | 1.42e6 |
| CG33144 | DRSC06132 | 1.33e6 | 1.36e6 | 1.05e6 | 1.06e6 |
| CG33144 | DRSC07024 | 1.94e6 | 1.96e6 | 1.53e6 | 1.78e6 |
| CG10959 | DRSC17769 | 5.58e5 | – | 9.04e5 | – |
| CG17127 | DRSC02581 | 1.57e6 | 1.56e6 | 1.16e6 | 1.26e6 |
| Jheh3 (Juvenile hormone epoxide hydrolase 3) | DRSC06533 | 1.34e6 | 1.38e6 | 1.14e6 | 1.13e6 |
| CG2691 | DRSC19866 | 6.15e5 | – | 9.06e5 | – |
| sip1 (septin interacting protein 1) | DRSC03609 | 1.49e6 | 1.34e6 | 1.06e6 | 1.14e6 |
| TTLL3A (Tubulin tyrosine ligase-like 3A) | DRSC02143 | 1.56e6 | 1.60e6 | 1.26e6 | 1.43e6 |
| CG2321 | DRSC15439 | 5.49e5 | – | 7.49e5 | – |
| CG15930 | DRSC18107 | 1.55e6 | 1.56e6 | 9.97e5 | 1.17e6 |
| CG42336 | DRSC05273 | 1.56e6 | 1.61e6 | 1.07e6 | 1.17e6 |
| CG42336 | DRSC06332 | 1.55e6 | 1.66e6 | 1.36e6 | 1.43e6 |
| CG42336 | DRSC06333 | 1.67e6 | 1.63e6 | 1.08e6 | 1.26e6 |
| Sting | DRSC06615 | 1.77e6 | 1.79e6 | 1.44e6 | 1.66e6 |

3 neighbouring records from above:
| gene | amplicon | Kc cell number, rep 1 | Kc cell number, rep 2 | S2R+ cell number, rep 1 | S2R+ cell number, rep 2 |
| --- | --- | --- | --- | --- | --- |
| t-Grip91 (testis-specific gamma-tubulin ring protein 91) | DRSC01506 | 1.61e6 | 1.61e6 | 9.97e5 | 1.20e6 |
| CG13833 | DRSC14683 | 1.59e6 | 1.67e6 | 9.84e5 | 1.06e6 |
| CG32551 | DRSC19259 | 1.66e6 | 1.95e6 | 1.14e6 | 1.29e6 |
